In paper PMC11731006, “Structural insight into Okazaki fragment maturation mediated by PCNA-bound FEN1 and RNaseH2”:
No constants are given. Whether binding was seen depends on the method and setting. Binding seen in cells or lysates may run through a third protein. These calls come from enrichment with a bait or labelling near it, and not all partners need be listed.

Sequences of proteins named here, by UniProt entry; tags and fusion partners are left off.
UniProt P12004: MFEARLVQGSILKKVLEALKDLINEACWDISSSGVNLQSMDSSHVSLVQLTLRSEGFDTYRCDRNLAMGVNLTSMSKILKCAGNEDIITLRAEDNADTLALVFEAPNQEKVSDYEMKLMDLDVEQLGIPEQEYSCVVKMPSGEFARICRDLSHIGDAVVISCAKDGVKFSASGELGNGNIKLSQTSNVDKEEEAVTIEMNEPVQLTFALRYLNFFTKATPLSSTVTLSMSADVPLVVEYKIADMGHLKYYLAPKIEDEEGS
UniProt P52701: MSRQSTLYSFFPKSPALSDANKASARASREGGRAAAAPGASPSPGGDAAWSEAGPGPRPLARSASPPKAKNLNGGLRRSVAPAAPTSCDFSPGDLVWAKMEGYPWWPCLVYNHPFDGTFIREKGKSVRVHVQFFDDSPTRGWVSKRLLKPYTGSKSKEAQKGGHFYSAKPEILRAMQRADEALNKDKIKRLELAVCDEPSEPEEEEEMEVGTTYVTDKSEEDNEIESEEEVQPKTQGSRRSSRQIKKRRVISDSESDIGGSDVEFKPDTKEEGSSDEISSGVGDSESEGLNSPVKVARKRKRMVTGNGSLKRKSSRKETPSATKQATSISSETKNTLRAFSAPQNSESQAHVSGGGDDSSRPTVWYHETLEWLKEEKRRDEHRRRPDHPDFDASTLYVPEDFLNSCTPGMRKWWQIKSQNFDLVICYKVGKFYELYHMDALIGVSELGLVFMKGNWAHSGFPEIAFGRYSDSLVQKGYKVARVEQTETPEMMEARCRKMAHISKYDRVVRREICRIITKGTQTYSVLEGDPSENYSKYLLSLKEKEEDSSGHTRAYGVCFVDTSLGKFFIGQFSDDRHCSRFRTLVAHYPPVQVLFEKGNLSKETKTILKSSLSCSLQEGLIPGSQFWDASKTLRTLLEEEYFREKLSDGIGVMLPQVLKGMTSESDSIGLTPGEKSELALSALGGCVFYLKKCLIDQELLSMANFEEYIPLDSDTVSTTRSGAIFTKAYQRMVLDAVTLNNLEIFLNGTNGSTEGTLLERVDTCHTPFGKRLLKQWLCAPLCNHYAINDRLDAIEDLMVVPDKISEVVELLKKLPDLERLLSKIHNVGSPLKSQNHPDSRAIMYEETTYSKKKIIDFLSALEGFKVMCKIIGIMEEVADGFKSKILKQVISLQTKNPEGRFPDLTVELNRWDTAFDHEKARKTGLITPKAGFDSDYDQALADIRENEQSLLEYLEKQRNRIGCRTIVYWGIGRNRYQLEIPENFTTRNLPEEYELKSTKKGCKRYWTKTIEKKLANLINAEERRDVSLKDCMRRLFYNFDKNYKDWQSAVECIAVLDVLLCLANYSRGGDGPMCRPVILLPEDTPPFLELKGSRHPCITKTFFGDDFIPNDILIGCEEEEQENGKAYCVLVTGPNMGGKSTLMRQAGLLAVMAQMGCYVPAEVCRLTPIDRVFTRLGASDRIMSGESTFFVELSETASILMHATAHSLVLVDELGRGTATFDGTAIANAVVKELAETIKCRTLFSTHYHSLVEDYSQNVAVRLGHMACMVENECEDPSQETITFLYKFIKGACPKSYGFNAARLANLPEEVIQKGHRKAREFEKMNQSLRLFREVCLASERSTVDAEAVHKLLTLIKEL

Target: N-terminally twin-strep tagged PCNA (Proliferating Cell Nuclear Antigen) (human) (UniProt P12004)
Assay: affinity purification with mass spectrometry; twin-strep-PCNA as bait from MNase-solubilised chromatin of hydroxyurea-treated HEK293 cells; anti-Strep affinity beads, elution with 20 mM desthiobiotin, 10-30% glycerol gradient; Coomassie gel bands identified by mass spectrometry

binding: binds
Substance: MSH6 (from UniProt P52701 1-1360)
